{"sequences": {"note": "By UniProt entry, the sequences of proteins in these tests, tags left out.", "UniProt P21454": "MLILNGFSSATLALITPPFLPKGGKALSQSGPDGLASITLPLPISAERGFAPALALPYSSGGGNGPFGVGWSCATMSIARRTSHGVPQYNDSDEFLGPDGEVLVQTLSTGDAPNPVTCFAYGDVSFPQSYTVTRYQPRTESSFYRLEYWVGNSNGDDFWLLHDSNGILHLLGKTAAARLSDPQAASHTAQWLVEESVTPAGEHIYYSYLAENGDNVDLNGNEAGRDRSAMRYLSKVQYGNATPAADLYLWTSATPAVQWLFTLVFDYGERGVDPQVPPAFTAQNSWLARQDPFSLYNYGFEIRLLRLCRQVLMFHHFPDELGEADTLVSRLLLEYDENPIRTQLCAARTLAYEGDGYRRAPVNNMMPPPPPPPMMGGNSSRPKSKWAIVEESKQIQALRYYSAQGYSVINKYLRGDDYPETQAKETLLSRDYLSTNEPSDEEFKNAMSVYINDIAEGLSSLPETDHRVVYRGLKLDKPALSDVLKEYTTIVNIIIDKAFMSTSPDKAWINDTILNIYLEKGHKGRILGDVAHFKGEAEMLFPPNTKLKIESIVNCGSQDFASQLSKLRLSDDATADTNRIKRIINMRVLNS"}, "source": "paper PMC8015805", "key": {"FLAG-tagged IKKβ": {"molecular_target": "T1, FLAG-tagged IKKβ (UniProt O14920)", "T1 sequence": "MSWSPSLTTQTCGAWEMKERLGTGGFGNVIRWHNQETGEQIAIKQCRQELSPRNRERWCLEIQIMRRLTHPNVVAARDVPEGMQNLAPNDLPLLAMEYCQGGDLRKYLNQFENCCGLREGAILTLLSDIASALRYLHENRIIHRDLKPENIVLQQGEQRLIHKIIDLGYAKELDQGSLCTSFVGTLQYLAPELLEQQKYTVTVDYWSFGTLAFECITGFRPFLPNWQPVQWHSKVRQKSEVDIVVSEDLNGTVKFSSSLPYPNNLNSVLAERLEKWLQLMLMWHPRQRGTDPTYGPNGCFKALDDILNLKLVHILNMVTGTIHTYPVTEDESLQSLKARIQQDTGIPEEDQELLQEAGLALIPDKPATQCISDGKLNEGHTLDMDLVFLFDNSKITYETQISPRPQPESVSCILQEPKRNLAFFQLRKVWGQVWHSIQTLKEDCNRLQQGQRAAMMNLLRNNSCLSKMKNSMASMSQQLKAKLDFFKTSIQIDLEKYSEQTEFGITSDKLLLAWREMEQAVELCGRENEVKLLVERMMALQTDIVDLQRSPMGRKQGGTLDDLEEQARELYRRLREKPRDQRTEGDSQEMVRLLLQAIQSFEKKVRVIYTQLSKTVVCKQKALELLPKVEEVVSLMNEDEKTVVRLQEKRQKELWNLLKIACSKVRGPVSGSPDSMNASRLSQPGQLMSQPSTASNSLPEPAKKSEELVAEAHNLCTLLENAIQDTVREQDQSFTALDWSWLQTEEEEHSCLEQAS", "experiment": "co-IP; 293T cells co-transfected for 24 h; lysed in RIPA buffer; precleared with protein A/G Plus-agarose; immunoprecipitated with anti-HA or anti-FLAG overnight at 4°C; blotted with anti-FLAG, anti-EGFP or anti-HA"}, "HA-tagged IKKα": {"molecular_target": "T2, HA-tagged IKKα (UniProt O15111)", "T2 sequence": "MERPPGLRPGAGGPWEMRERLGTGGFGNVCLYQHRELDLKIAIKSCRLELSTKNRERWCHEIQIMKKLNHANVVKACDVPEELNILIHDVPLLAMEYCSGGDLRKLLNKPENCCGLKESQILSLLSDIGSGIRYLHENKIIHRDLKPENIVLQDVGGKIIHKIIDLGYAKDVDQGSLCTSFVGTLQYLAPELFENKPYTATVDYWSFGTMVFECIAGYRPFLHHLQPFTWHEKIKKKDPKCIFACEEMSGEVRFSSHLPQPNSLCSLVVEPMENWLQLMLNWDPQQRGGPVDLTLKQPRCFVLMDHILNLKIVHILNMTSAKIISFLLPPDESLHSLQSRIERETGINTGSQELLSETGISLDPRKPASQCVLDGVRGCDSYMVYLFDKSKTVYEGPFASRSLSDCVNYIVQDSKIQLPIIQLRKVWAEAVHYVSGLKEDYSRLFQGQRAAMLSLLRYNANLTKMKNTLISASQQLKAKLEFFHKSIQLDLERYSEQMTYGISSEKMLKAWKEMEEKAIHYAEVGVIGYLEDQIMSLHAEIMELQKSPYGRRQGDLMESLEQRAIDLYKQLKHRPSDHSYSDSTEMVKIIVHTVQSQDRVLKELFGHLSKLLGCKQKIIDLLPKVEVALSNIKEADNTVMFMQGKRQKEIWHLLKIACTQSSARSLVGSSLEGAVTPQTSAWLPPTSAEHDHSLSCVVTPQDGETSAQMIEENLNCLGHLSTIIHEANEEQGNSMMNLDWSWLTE", "experiment": "co-IP; 293T cells co-transfected for 24 h; lysed in RIPA buffer; precleared with protein A/G Plus-agarose; immunoprecipitated with anti-HA or anti-FLAG overnight at 4°C; blotted with anti-FLAG, anti-EGFP or anti-HA"}}, "note": "These are yes or no findings as the source states them, for the method shown. Binding seen in cells or lysates may run through a third protein. Where a sequence is shown, tags or fusion partners need not be part of it."}
{"substance": "EGFP-tagged SpvB (HA-SpvB-EGFP fusion protein) (from UniProt P21454 1-591)", "values": [{"measurement": "binding", "setting": "FLAG-tagged IKKβ", "value": "no binding"}, {"measurement": "binding", "setting": "HA-tagged IKKα", "value": "no binding"}]}
